Our source for the binding values is article doi:10.1101/2020.01.04.893909 (bioRxiv, 2020).

By UniProt entry, the sequences of proteins in these tests, tags left out.
UniProt Q06142: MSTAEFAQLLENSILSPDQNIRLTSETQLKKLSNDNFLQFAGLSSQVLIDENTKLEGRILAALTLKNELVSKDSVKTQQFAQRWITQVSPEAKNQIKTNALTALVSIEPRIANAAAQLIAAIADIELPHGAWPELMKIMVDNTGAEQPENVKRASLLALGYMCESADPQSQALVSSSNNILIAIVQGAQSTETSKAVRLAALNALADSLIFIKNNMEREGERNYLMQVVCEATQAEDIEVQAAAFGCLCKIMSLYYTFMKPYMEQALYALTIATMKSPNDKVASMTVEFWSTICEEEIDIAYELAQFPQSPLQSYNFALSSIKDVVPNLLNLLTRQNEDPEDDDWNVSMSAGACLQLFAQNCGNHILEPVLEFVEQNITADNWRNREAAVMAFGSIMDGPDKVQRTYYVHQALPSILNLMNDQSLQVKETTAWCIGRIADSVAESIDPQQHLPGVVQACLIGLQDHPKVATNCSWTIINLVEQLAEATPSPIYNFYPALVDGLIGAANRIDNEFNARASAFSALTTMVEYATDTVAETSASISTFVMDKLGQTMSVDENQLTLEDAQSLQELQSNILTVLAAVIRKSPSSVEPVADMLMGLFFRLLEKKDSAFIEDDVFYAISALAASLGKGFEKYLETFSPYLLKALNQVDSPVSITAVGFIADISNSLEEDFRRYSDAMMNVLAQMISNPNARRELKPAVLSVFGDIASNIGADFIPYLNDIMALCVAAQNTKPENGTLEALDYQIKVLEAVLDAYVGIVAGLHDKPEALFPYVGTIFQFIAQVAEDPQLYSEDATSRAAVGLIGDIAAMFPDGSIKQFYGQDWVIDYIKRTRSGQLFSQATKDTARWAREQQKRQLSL
UniProt P21827: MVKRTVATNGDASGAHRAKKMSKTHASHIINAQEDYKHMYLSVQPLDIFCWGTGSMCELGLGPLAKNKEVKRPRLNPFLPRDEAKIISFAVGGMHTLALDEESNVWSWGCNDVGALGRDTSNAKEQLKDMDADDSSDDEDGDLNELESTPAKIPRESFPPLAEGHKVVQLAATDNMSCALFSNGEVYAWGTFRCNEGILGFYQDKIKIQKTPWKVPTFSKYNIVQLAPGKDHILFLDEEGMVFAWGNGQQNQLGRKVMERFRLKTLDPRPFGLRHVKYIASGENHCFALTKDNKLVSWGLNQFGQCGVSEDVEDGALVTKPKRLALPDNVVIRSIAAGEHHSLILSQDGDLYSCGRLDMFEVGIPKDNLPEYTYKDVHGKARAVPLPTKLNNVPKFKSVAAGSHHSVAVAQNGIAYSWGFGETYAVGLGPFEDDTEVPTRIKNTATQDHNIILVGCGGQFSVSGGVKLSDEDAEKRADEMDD
UniProt Q02821: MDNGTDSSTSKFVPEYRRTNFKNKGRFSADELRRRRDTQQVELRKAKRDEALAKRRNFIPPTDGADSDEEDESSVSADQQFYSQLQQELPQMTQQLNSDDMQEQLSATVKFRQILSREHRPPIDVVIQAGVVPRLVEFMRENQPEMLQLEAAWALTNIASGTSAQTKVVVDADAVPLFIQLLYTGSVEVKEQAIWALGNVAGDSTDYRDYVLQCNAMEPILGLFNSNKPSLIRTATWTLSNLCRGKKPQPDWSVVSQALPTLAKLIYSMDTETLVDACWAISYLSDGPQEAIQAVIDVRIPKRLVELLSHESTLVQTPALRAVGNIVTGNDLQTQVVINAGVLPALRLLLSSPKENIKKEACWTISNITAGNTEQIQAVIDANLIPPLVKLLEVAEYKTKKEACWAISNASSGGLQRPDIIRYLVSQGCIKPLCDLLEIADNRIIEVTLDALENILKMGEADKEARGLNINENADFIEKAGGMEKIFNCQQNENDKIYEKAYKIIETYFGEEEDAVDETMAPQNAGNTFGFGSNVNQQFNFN
UniProt Q03433: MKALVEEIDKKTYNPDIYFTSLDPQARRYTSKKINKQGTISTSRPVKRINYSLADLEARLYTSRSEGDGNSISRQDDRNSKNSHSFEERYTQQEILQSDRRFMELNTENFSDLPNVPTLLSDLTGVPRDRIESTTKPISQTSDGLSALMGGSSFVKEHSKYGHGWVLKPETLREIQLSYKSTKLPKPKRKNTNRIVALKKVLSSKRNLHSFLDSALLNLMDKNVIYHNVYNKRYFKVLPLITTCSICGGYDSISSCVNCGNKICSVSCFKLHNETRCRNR

B1: S. cerevisiae homologue of GAP (Rna1), recombinant (natural protein, UniProt P11745 1-407, looked up)
chain: MATLHFVPQHEEEQVYSISGKALKLTTSDDIKPYLEELAALKTCTKLDLSGNTIGTEASEALAKCIAENTQVRESLVEVNFADLYTSRLVDEVVDSLKFLLPVLLKCPHLEIVNLSDNAFGLRTIELLEDYIAHAVNIKHLILSNNGMGPFAGERIGKALFHLAQNKKAASKPFLETFICGRNRLENGSAVYLALGLKSHSEGLKVVKLYQNGIRPKGVATLIHYGLQYLKNLEILDLQDNTFTKHASLILAKALPTWKDSLFELNLNDCLLKTAGSDEVFKVFTEVKFPNLHVLKFEYNEMAQETIEVSFLPAMEKGNLPELEKLEINGNRLDEDSDALDLLQSKFDDLEVDDFEEVDSEDEEGEDEEDEDEDEKLEEIETERLEKELLEVQVDDLAERLAETEIK
B2: Pse1 (protein, UniProt P32337 1-1089)
chain: MSALPEEVNRTLLQIVQAFASPDNQIRSVAEKALSEEWITENNIEYLLTFLAEQAAFSQDTTVAALSAVLFRKLALKAPPSSKLMIMSKNITHIRKEVLAQIRSSLLKGFLSERADSIRHKLSDAIAECVQDDLPAWPELLQALIESLKSGNPNFRESSFRILTTVPYLITAVDINSILPIFQSGFTDASDNVKIAAVTAFVGYFKQLPKSEWSKLGILLPSLLNSLPRFLDDGKDDALASVFESLIELVELAPKLFKDMFDQIIQFTDMVIKNKDLEPPARTTALELLTVFSENAPQMCKSNQNYGQTLVMVTLIMMTEVSIDDDDAAEWIESDDTDDEEEVTYDHARQALDRVALKLGGEYLAAPLFQYLQQMITSTEWRERFAAMMALSSAAEGCADVLIGEIPKILDMVIPLINDPHPRVQYGCCNVLGQISTDFSPFIQRTAHDRILPALISKLTSECTSRVQTHAAAALVNFSEFASKDILEPYLDSLLTNLLVLLQSNKLYVQEQALTTIAFIAEAAKNKFIKYYDTLMPLLLNVLKVNNKDNSVLKGKCMECATLIGFAVGKEKFHEHSQELISILVALQNSDIDEDDALRSYLEQSWSRICRILGDDFVPLLPIVIPPLLITAKATQDVGLIEEEEAANFQQYPDWDVVQVQGKHIAIHTSVLDDKVSAMELLQSYATLLRGQFAVYVKEVMEEIALPSLDFYLHDGVRAAGATLIPILLSCLLAATGTQNEELVLLWHKASSKLIGGLMSEPMPEITQVYHNSLVNGIKVMGDNCLSEDQLAAFTKGVSANLTDTYERMQDRHGDGDEYNENIDEEEDFTDEDLLDEINKSIAAVLKTTNGHYLKNLENIWPMINTFLLDNEPILVIFALVVIGDLIQYGGEQTASMKNAFIPKVTECLISPDARIRQAASYIIGVCAQYAPSTYADVCIPTLDTLVQIVDFPGSKLEENRSSTENASAAIAKILYAYNSNIPNVDTYTANWFKTLPTITDKEAASFNYQFLSQLIENNSPIVCAQSNISAVVDSVIQALNERSLTEREGQTVISSVKKLLGFLPSSDAMAIFNRYPADIMEKVHKWFA

Results are given in words; binding and its absence hold for the method and conditions named. Binding seen in cells or lysates may run through a third protein. A yes stands for co-enrichment or nearness to the bait. Other partners may have been found.

For this experiment, the target named is 3xFLAG-tagged wild-type Gsp1 (S. cerevisiae) (UniProt P32835). The experiment is described as follows: affinity purification with mass spectrometry.
Regarding Kap95 (from UniProt Q06142 1-861), the binding entry is reported as “binds”.
Take “Srm1 (GEF), S. cerevisiae, endogenous (from UniProt P21827 1-482)”: the binding entry is on record as “binds”.
Consider Srp1 (from UniProt Q02821 1-542), for which the binding entry is “binds”.
In the case of Vps71 (from UniProt Q03433 1-280) it was “binds”.
In the case of B1, the binding entry was “binds”.
As for B2, the binding entry is “binds”.
